# Test results reported in patent publication US11214593B2 (SUIGENERIS FARMACOSMETICS, S.L., priority 2017, dated 2022).
# Some peptides are written in HELM: one residue between dots, names in brackets for other building blocks, links after the first $.
# Test: general procedure: Fmoc solid-phase peptide synthesis; Rink-amide resin; DIPCDI/HOBt
# Settings: whole synthesis
row,Substance,purity (crude or final not stated) [%]
1,CH3-C(O)-CFEVSKY-NH2 (N-acetyl; C-terminal amide; MOD_RES (1)..(1) …ON; MOD_RES (7)..(7) AMIDATION),97.45
2,CH3-C(O)-FEISKY-NH2,90.54
3,CH3-C(O)-VFSTAL-NH2,94.14
4,CH3-C(O)-CVFSTAL-NH2,99.12
5,PEPTIDE1{[ac].C.F.E.I.S.K.Y.[am]}$$$$V2.0,97.00
6,CFEISKY-NH2 (C-terminal amide; MOD_RES (7)..(7) AMIDATION),97.54
